From article doi:10.1101/2022.01.12.474522 come the findings set out here.

This series has as its system OscWRKY1 (Ocimum sanctum). As to the kind of experiment: EMSA. (In general: A gel shift assay detects complexes by their altered migration in electrophoresis.)

For at least one entry, the source does not settle the construct or the ends of the probe. A negative result means that nothing was seen under these conditions.

Turning to “ACAAAAATTTCACTATACTTCACTATT (double strand) [W-box 5 (M), TTCACT]”, the binding result was “no binding”.

“AGATTGACCAGATTTGACCTGTTGACCCT / AGGTCAATAAGGGTCAACAGGTCAAATC [W-box 1 (TTGACC) probe]”: the binding result is on record as “binds”.

For the sequence “ACAAAAATTTGACTATACTTGACTATTAGTG / ACACTAATAGTCAAGTATAGTCAAATTTTTG [W-box 5 (TTGACT) probe]”, the binding result was “binds”.

As to “AGATTGACGAGATTTGACGTGTTGACGCT (double strand) [W-box 1 (M), TTGACG]”, the binding result is “no binding”.
